From article PMC9492659
No constants are given. Whether binding was seen depends on the method and setting. Binding seen in cells or lysates may run through a third protein. Some results given as binding are weak or reduced against the parent protein; the word gives no strength. Sequences can lack the tags named with a protein.

Sequences of proteins named here, by UniProt entry; tags and fusion partners are left off.
UniProt P51159: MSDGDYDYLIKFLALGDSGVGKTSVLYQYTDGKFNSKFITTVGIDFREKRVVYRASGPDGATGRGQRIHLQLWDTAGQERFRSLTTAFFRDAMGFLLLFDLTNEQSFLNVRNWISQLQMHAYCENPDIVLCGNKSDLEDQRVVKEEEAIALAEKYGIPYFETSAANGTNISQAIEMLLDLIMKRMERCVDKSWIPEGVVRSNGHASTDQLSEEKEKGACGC

Target: EGFP-Rab27a (UniProt P51159)
Test: FRET or BRET; TR-FRET: cell lysates obtained by nitrogen cavitation (intact organelles) expressing Myc-JFC1 or EGFP-Rab27a and mCherry-WASH were mixed and incubated with terbium-conjugated anti-Myc antibody for 10 min; excitation 340 nm; emission ratio 520 nm/490 nm; with or without WASH

binding: binds
B1: Myc-JFC1 (protein, UniProt Q8IYJ3 1-562)
chain: MPQRGHPSQEGLWALPSLPMAHGPKPETEGLLDLSFLTEEEQEAIAGVLQRDARLRQLEEGRVSKLRASVADPGQLKILTGDWFQEARSQRHHNAHFGSDLVRASMRRKKSTRGDQAPGHDREAEAAVKEKEEGPEPRLTIDEAPQERLRETEGPDFPSPSVPLKASDPEEASQAQEDPGQGDQQVCAEEADPELEPASGGEQEPRPQQAQTKAASQILENGEEAPGPDPSLDRMLSSSSSVSSLNSSTLSGSQMSLSGDAEAVQVRGSVHFALHYEPGAAELRVHVIQCQGLAAARRRRSDPYVKSYLLPDKQSKRKTAVKKRNLNPVFNETLRYSVPQAELQGRVLSLSVWHRESLGRNIFLGEVEVPLDTWDWGSEPTWLPLQPRVPPSPDDLPSRGLLALSLKYVPAGSEGAGLPPSGELHFWVKEARDLLPLRAGSLDTYVQCFVLPDDSQASRQRTRVVRRSLSPVFNHTMVYDGFGPADLRQACAELSLWDHGALANRQLGGTRLSLGTGSSYGLQVPWMDSTPEEKQLWQALLEQPCEWVDGLLPLRTNLAPRT
